PubChem BioAssay AID1259254 | NCATS, 2017
Shown is one part, drawn at random, of about 59,000 reagents. About 1,550 of them (2.6%) count as active. 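G2 share is only a proxy for re-replication; each gene was hit by three separate siRNAs, and active genes were retested.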 Unmarked entries are inactive. The numbers tell different reagents against one gene apart. Not all columns of the deposit are shown. Not stated in the record: the amount of reagent.

- Test: 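Gene knock-downs that lead to re-replication, shown by excess G2 DNA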 (primary screen)
- Cells: human HCT116 colorectal cancer cells
- Reagent: single siRNA against human genes
- Time to read-out: 3 days
- Measurement: 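Nuclei stained with Hoechst and imaged; cell-cycle phase assigned by DNA content; G2 share scaled per plate, non-targeting siRNA 0%, GMNN siRNA 100%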
- Scale: G2 robust z-score: higher = more G2 cells, more excess DNA replication
- Call rule: 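Active siRNAs have a G2 robust z of 5 or more median absolute deviations over the median, which in these data means about 38% or higher of GMNN control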

G2 robust z-score, by gene and reagent
HSD17B2: #1 -1.25; #2 0.0938; #3 0.236
OR4A16: #1 -0.0217; #2 2.55; #3 0.582
CA9: #1 3.19; #2 -0.681; #3 8.77 (active)
PILRA: #1 -0.518; #2 -0.484; #3 -0.21
AKT3: #1 -1.55; #2 -0.346; #3 1.79
OR2C3: #1 2.68; #2 2.52; #3 -0.85
CRYBB2: #1 1.47; #2 -0.315; #3 0.413
INSM1: #1 1.2; #2 -0.288; #3 -0.00106
CC2D2A: #1 -0.382; #2 0.492; #3 -0.598
STRN4: #1 0.0582; #2 0.0525; #3 0.856
LILRA1: #1 -1.63; #2 0.296; #3 -0.889
SCAMP5: #1 -0.158; #2 -0.273; #3 0.349
MSLNL: #1 -0.0172; #2 0.905; #3 -1.09
FAM90A20: #1 -0.269; #2 -1.14; #3 1.59
RPL23AP74: #1 1.03; #2 3.36; #3 0.86
CELA2B: #1 0.0517; #2 2.69; #3 -0.967
